Source: PubChem BioAssay AID588497 (NMMLSC, 2011)
The campaign covered roughly 360,000 compounds. About 780 (0.22%) were called active. Inconclusive means that the source gave no clear call. Such entries were picked first, then a sample of the others. Cut-off read from the data, not from the text of the source: active = inhibition above about 35% (passing the limit was not always enough); inconclusive = no clear call, values can overlap the other calls.

What follows are compounds tested on Botulinum neurotoxin type F light chain protease (Clostridium botulinum) (assay: BoNT/F light chain protease inhibitors, primary screen, biochemical, flow cytometry, MLPCN library (AID 588497; note: plate controls were buffer without enzyme for full effect and enzyme alone for no effect)). Conditions: Multiplex microsphere protease cleavage assay, at 10 µM, hits give high values.

SMILES | inhibition
c1cc(-n2nnc3cnccc32)ccn1 | inconclusive: -6.7%
O=C1OCC/C1=C\NCCCN/C=C1\CCOC1=O | inactive: -0.6%
O=C(NCc1cccc(Cl)c1)N1CCN(S(=O)(=O)c2ccccc2F)CC1 | active: 69.3%
COc1ccc(-c2nc(SCC(=O)Nc3cccc(S(N)(=O)=O)c3)n[nH]2)cc1 | inactive: 1.7%
COc1ccccc1CNC(=O)Cn1nc(C)c([N+](=O)[O-])c1C | inconclusive: 9.2%
Clc1ccc(-[n+]2c(-c3cccc(Br)c3)[nH]c3nc4ccccc4nc32)cc1 | inconclusive: -34.9%
CCOc1ccc(N(CC(=O)NCCSCc2ccccc2)S(C)(=O)=O)cc1 | inconclusive: 23.4%
O=C(Nc1ccc(Cl)c(S(=O)(=O)N2CCOCC2)c1)c1cc(=O)[nH]c2ccccc12 | inconclusive: 3.2%
Cc1ccc(C(=O)Nc2cccnc2Cl)cc1Cl | inconclusive: 19.2%
COc1ccc(CCC(C)NCc2cc(OC)cc(OC)c2)cc1 (centres undefined) | inconclusive: 13.9%
O=C(COc1ccccc1)N(Cc1nnc(-c2ccccc2Cl)o1)C1CC1 | active: 36.9%
COc1ccc(-c2oc3ccccc3c2C(=O)OCc2ccccc2)cc1 | inactive: -10%
COc1ccccc1-n1nnnc1SCC(=O)N(C)C1CCS(=O)(=O)C1 (centres undefined) | inconclusive: -8.9%
NC(=O)C1CCCN(Cc2ccc3ccccc3c2)C1 (centres undefined) | inconclusive: -2%
c1ccc2c(c1)N1CCN=C1N2CCN1CCCCC1 | inconclusive: -9.3%
CCOC(=O)C1(C)CCN1C(=O)c1ccc(Cl)nc1 (centres undefined) | inactive: 4.3%
NC(=O)c1ccc(SCC(=O)OCC(=O)NCc2ccco2)c([N+](=O)[O-])c1 | inactive: 3.5%
COc1ccc(/C=C2\COc3ccccc3C2=O)c(OC)c1 | inactive: -17.3%
COc1ccc(CN(C)CCCn2cnc3c(SC)ncnc32)cc1OC | inactive: -3.9%
COc1ccc2c(c1)[n+](=O)c(C(C)=O)c(C)n2[O-] | inconclusive: -33.3%
COc1ccc(OC)c(/C=N/NC(=O)c2cnccn2)c1 | inconclusive: -17.1%
O=C(CCCN1C(=O)c2ccccc2C1=O)NCc1ccc(F)cc1 | inconclusive: -44%
COc1ccc(NC(=S)N2CCN(S(=O)(=O)c3ccc(C)cc3)CC2)cc1 | inactive: 0.4%
Cn1c(=O)c(=O)n(C)c2cc([N+](=O)[O-])c(N3CCOCC3)cc21 | inactive: 20.1%

Arranged by heavy-atom count (smallest number first): some entries from above
SMILES | inhibition
COc1ccc2c(c1)[n+](=O)c(C(C)=O)c(C)n2[O-] | inconclusive: -33.3%
COc1ccc(OC)c(/C=N/NC(=O)c2cnccn2)c1 | inconclusive: -17.1%
COc1ccccc1CNC(=O)Cn1nc(C)c([N+](=O)[O-])c1C | inconclusive: 9.2%
COc1ccc(CCC(C)NCc2cc(OC)cc(OC)c2)cc1 (centres undefined) | inconclusive: 13.9%
O=C(CCCN1C(=O)c2ccccc2C1=O)NCc1ccc(F)cc1 | inconclusive: -44%
COc1ccccc1-n1nnnc1SCC(=O)N(C)C1CCS(=O)(=O)C1 (centres undefined) | inconclusive: -8.9%
COc1ccc(NC(=S)N2CCN(S(=O)(=O)c3ccc(C)cc3)CC2)cc1 | inactive: 0.4%

Additional entries follow.

SMILES | inhibition
CCNC(=S)NNC(=O)CSc1nc2ccccc2n1C | inconclusive: 6.4%
CC1CC(C)(C)NC(=S)N1CC(=O)NCc1ccc(Cl)cc1 (centres undefined) | active: 47%
O=C1/C(=C/c2cccc([N+](=O)[O-])c2)CSc2ccc(Cl)cc21 | inconclusive: -25.7%
CC(C)(C)c1cc(NC(=O)C2(C)CCN2C(=O)C2(c3ccccc3)CC2)no1 (centres undefined) | inactive: 1.8%
COc1cnc(-c2ccccc2)c(-c2ccccc2)n1 | inconclusive: 16.2%
N/C(=N\OC(=O)c1cccc(Br)c1)c1ccc([N+](=O)[O-])cc1 | inconclusive: 8.8%
CCOC(=O)N1CCN(C(=O)c2cc3c(s2)-c2ccccc2OC3)CC1 | inactive: -2.8%
Cn1c(=O)c2c(nc(CN3CCOCC3)n2CC(O)CO)n(C)c1=O (centres undefined) | inconclusive: 6.5%
c1ccc(-n2cccc2)c(N2CCCCC2)c1 | inconclusive: -65.3%
Cc1cc(OCC(=O)N2CCOCC2)cc2oc(=O)c3ccccc3c12 | inactive: 0.2%
CC(C)(C)NC(=O)N1CCN(c2ncccc2C(F)(F)F)CC1 | inconclusive: -44.7%
CC1(C)CC2(CCO1)OC(=O)CC2C(=O)Nc1c(Cl)cccc1Cl (centres undefined) | inconclusive: 71.1%
CN(C)c1ccc(/C=C/c2nc3ccccc3c(=O)n2CCO)cc1 | inconclusive: -19.1%
C=CCNC(=O)c1ccc(CSc2nc3ccccc3s2)cc1 | inactive: 1.7%
CC(C)CC1C2C(=O)N(c3ccccc3)C(=O)C2ON1c1ccccc1 (centres undefined) | inconclusive: -52.4%
CCOC(=O)c1nn(-c2ccccc2C)c(=O)c2c(N)scc12 | inactive: -3%
COc1ccc(CCNc2nc(Cl)nc(NC(C)(C)CO)n2)cc1OC | inconclusive: -3.7%
CCCCC(=O)Nc1ncc(Br)s1 | inactive: 5.7%
CSc1ccc(S(=O)(=O)NCC(=O)OCC(=O)NCCc2ccccc2)cc1[N+](=O)[O-] | inconclusive: 10.3%
COc1ccc(Oc2coc3cc(O)ccc3c2=O)cc1 | inconclusive: 24.7%
CC(C)C(=O)Nc1ccc2c(c1)Cc1cc(NC(=O)C(C)C)ccc1-2 | inactive: 27.8%
CCOc1ccc(C(=O)N2CCN(c3cccc(C)c3C)CC2)cc1 | inactive: -5.8%
CCN1CCc2nc(NC(=O)c3ccccc3)sc2C1 | inactive: -1.5%
CCN(CC)C(=O)COc1ccc(S(=O)(=O)N2CCOCC2)cc1 | inactive: 2.9%

SMILES | inhibition
CCN(CC(=O)Nc1c(F)cccc1F)C(=O)c1ccc(S(=O)(=O)N2CCCCC2)cc1 | inconclusive: -3.3%
Cc1oc(-c2ccccc2)nc1CC(=O)O | inconclusive: -0.7%
CC(NC(=O)c1ccc2c(c1)OCO2)C(c1cccs1)N1CCN(c2ccccc2)CC1 (centres undefined) | inactive: -2.5%
CN(C)C(=O)COc1ccc2c3c(c(=O)oc2c1)CCCC3 | inconclusive: -14.7%
COc1ccc(CCNC(=O)Nc2ccc3c(c2)c(=O)n(C)n3CC=C(C)C)cc1OC | inactive: -1.5%
CC(C)(C)c1nc(Sc2ccc([N+](=O)[O-])cn2)n[nH]1 | inconclusive: -4.3%
COc1ccc2oc(C(=O)Nc3ccc(N4CCOCC4)cc3)c(C)c2c1 | inconclusive: -11.5%
COc1nc(C)cc(C)c1S(=O)(=O)c1ccccc1C | inconclusive: -5.5%
CC1(C)CC(NC(=S)NC2CC2)CC(C)(C)N1 | inactive: -4.1%
COc1ccc(C(=O)NNC(=O)C2CC=CCC2)cc1 (centres undefined) | inconclusive: -18.6%
COCCCn1c(N)c(C(=O)Nc2ccccc2)c2nc3ccccc3nc21 | inconclusive: -65.7%
COc1ccccc1NC(=O)c1sc2nc(C)cc(C)c2c1N | inconclusive: -11.8%
O=C(O)Cn1cc(CN2CCOCC2)c2ccccc21 | inconclusive: -2.8%
CN(C)/C=C1\C=C2C(=O)c3ccccc3N2C1=O | inconclusive: 47%
CC(C)(C)c1csc(NC(=O)Cn2c(=O)oc3ccccc32)n1 | inconclusive: -3.3%
C=CCNC(=O)C1CC1(c1ccc(C)cc1)c1ccc(C)cc1 (centres undefined) | inconclusive: 11.6%
Cc1ccc(NC(=O)C2=NNC(=O)CC2)cc1F | inconclusive: -6%
COc1ccc(OC)c(/C=N/NC(=O)CCc2c(C)n[nH]c2C)c1 | active: 40.5%
Cc1cccc(C(=O)NCCCn2ccnc2)c1C | inconclusive: 14.2%
CCC(NC(=O)c1ccncc1)c1ccccc1 (centres undefined) | inconclusive: -0.4%
COCCn1cnc2c(c1=O)c1nc3ccccc3nc1n2/N=C/c1ccc(OC)c(OC)c1 | inconclusive: -9%
CC12CN3CC(C)(CN(C1)C3c1ccc(Cl)cc1)C2 (centres undefined) | inconclusive: -23%
O=C(Nc1ccc(Cl)cc1)OCc1cn(-c2ccccc2)nn1 | inactive: -12%
C[n+]1ccc(C(=O)Nc2ccccc2Cl)cc1 | inconclusive: -104%

SMILES | inhibition
CCCCCCN1N=C(C)C(C(=O)c2ccc(Cl)cc2)C1=O (centres undefined) | inactive: 5%
O=C(NCC1CC1)c1cc([N+](=O)[O-])cc([N+](=O)[O-])c1 | inconclusive: -0.9%
Cc1cccc(C(=O)Nc2ccc(N3CCN(c4ccc(C(F)(F)F)cn4)CC3)nc2)c1 | inconclusive: 50.4%
Cn1cc(Br)c(-c2cccc(NC(=O)CC(C)(C)CC(=O)O)c2)n1 | inconclusive: -11.3%
CNC(=S)N1N=C2c3ccccc3CCC2C1c1ccccc1Cl (centres undefined) | inconclusive: 7.7%
O=C(/C=C/c1ccc(Cl)c(Cl)c1)NCCCn1ccnc1 | inconclusive: -63.2%
COc1ccc(/C=N/NC(=O)CSCC(=O)Nc2ccccc2)cc1 | inconclusive: -74.7%
COC(=O)c1ccc(NC(=O)CN(c2ccc(C)cc2)S(=O)(=O)c2c(C)n[nH]c2C)cc1 | inconclusive: -41.8%
OC(COc1cccc2ccccc12)CN1CCN(c2ccc(Cl)cc2)CC1 (centres undefined) | active: 35.2%
Cn1c(CNC(=O)c2ccccc2F)cc2ccccc21 | inconclusive: 4.6%
Cc1cc(/C=C2\NC(=O)NC2=O)c(C)n1-c1ccc(N2CCOCC2)cc1 | inconclusive: -11.2%
CN1CCN(c2ccc(NC(=O)c3ccccc3)cc2)CC1 | active: 38.8%
O=C(Oc1ccc(-c2nnco2)cc1)c1ccco1 | inconclusive: 6.2%
Cc1cccc(C(=O)NNS(=O)(=O)c2ccc(F)cc2)c1O | inconclusive: -48.3%
N#Cc1ccc(NC(=O)Cn2cnc([N+](=O)[O-])c2)cc1 | inconclusive: -2.8%
O=[N+]([O-])c1ccc(NN=Cc2cccc3ccccc23)cc1 | inactive: 4.9%
CSCCC(NS(=O)(=O)c1ccccc1)C(=O)Nc1nccs1 (centres undefined) | inconclusive: -14.6%
COc1ccc(CN2CCC(Oc3ccc(C(=O)NCc4ccccn4)cc3)CC2)c(F)c1 | inactive: -6.7%
COc1cc2c(cc1OC)C(c1ccccc1)N(C(=O)CCl)CC2 (centres undefined) | inconclusive: -21.3%
CC(=O)N1CCN=C1SCc1cccc(C(F)(F)F)c1 | inconclusive: -21.2%
CCc1ccccc1NNC(=O)CCc1ccccc1 | inconclusive: -46.7%
Cc1cc(C)cc(NC(=O)CCCN2C(=O)C(c3ccccc3)Oc3cccnc32)c1 (centres undefined) | inactive: 0.6%
